Reference: article PMC3422340
These are yes or no findings as the source states them, for the method shown. For part of these data: Binding can be weak; no strength is given. For part of these data: Sequences can lack the tags named with a protein. For part of these data: In cells and extracts the contact can be indirect. Blank lines part the entries; values can stand above or below the molecule they belong to.

Legend:
[1] = target: T1, LexA-S1CD fusion protein (syndecan-1 cytoplasmic domain bait) (mouse) (UniProt P18828); assay: two-hybrid; LexA bait fusions (pBTM116) and VP16 prey fusions (pVP16) in S. cerevisiae L40; β-galactosidase activity as reporter (histidine prototrophy too in the screen)
T1 sequence: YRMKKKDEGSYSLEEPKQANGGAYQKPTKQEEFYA

[2] = target: T2, LexA-Sdc-4 cytoplasmic domain (S4CD) (UniProt P34901); assay: as above
T2 sequence: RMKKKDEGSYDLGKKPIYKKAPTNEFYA

[3] = target: T3, LexA-Sdc-3 cytoplasmic domain (S3CD) (UniProt P33671); assay: as above
T3 sequence: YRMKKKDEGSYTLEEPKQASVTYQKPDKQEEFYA

[4] = target: glutathione S-transferase (GST) alone; assay: pull-down; GST or GST-S1CD adsorbed to glutathione-agarose, incubated 2 hours at 4°C with triple detergent extracts of 3T3 cells that overexpress Topors, diluted in NET-BSA; eluted with glutathione; western blot with chicken anti-Topors; only the target purified

- binding [1]: no binding
Molecule: VP16-Topors 398–516 deletion mutant Δ454–516 (mouse) (domain or fragment)

- binding [1]: binds
Molecule: VP16-Topors 398–516 deletion mutant Δ441–457 (mouse) (domain or fragment)

More lines, now with the values behind:

Molecule: VP16-Topors 398–516 deletion mutant Δ477–492 (mouse) (domain or fragment)
- binding [1]: binds

Molecule: VP16-Prey 36 fusion protein (murine Topors 398-516) (mouse) (domain or fragment)
- binding [2]: no binding
- binding [3]: binds weakly
- binding [1]: binds

Molecule: VP16-Topors 398–516 deletion mutant Δ493–510 (mouse) (domain or fragment)
- binding [1]: no binding

Molecule: VP16-Topors 398–516 deletion mutant Δ423–440 (mouse) (domain or fragment)
- binding [1]: binds

B1: carboxyl-terminal c-Myc epitope-tagged murine Topors overexpressed in 3T3 cells (protein, UniProt Q80Z37 1-1016)
chain: MGSQPPPPGSPLSREEGEAPPLVPAEEGRRRSRRVRLRGSCRHRPSLLSRRELASNGPAVPATASSEIMASAAKEFKMDNFSPKAGTSKLQQTVPADASPDSKCPICLDRFDNVSYLDRCLHKFCFRCVQEWSKNKAECPLCKQPFDSIFHSVRAEDDFKEYVLRPSYNGSFTNPEVRRFRYRTTMTRERSASLYSPSSTVSRRTTTPPDSGVLFEGLGISTRPRDVDIPQFMRQMALRGPTTTDERSLRKIQEQDIINFRRTLYRAGVRVRSIEDGGRYRDISAEFFRRNPACLHRLVPWLKRELTVLFGAHGSLVNIVQHIIMSNVTRYDLESQAFVSDLRPFLLNRTEHFIHEFISFARSPFNMAAFDQHANYDCPPSSEEGSRSDSSVITISPDEAETQELDMNASTVRQAPWDDETPGPSYSSSEQVHVGVSSLLNSSDSSDEELVSGGTTSQIQGVQTNDDVNNDSDSSSDNCVIVGFVKPLAERTPELVELSSDSEELGPYEKVETVKTQEQEQSYSSGDSDVSRASSPRSVLGKDEQMSKSHCDSDTRISSKKEEKRSTSLPAPRDSSSTRGDRVCSPYNHRHRKGGRSRSSDSRSQSRSGHDPRNHRKHGKKRLRNKRSRSRESSSRPRARKDKKRSRTRDSSWSRRSQTLSLSSGSTSRSRSRSSDHGKRRSRSRNRDRYYLRNNYGSKYKWEYTYYSRNKDRDGYESSYRRRTLSRAHYSRQSSSPEFRIQSFSERTNARKKNHSERKYYYYERRRSRSVSSNRSRTTSAGPDRVRNEKPGGKRKYKTRHLEGTSEEAQPAREFTSKGKDSHYQKSKLDGSYKNESDSFSDSRSSDRETKHKRRRRRTRSLSVEIVYEGKATDTSKHHKKKKKKHKKKHKKHHGDNTSRSPVVITIDSDSDGESEVKAGIECSNGSLPQPIQDGAFETKDVVTIEDELGVLDKDCDVTALADDLSTSQTVENCDSPAVPVEQTLDVREESTFASDLESQSSNVSIQAEPSRPVPS
- binding [4]: no binding
